In all, about 53,000 sequences went through this assay and about 3,700 (7%) were called active.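 Rule for the calls: active = gene knockdowns whose robust z-score for IL-1 alpha signal is at least 2 or at most -2, so actives lie on both sides; inactive = the rest.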 Some of the results follow.

This assay is described as follows: Components of the Cytosolic LPS Sensing Pathway: Gene Identification via Genome-wide siRNA Screen.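 Note: robust z of the log signal after scaling to non-targeting control siRNA wells of the plate.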 As to conditions: RAW264.7 macrophages, IL-1a HTRF, actives lie on both sides, screened at 100 nM (by protocol), cells primed 5 h with Pam3CSK4 first. The method, boiled down:
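Read-out: IL-1a HTRF on supernatant, divided by plate negative-control median ×100, log-transformed and converted to robust z-score. Cells were RAW264.7 given 100 nM siRNA, Pam3CSK4-primed 5 hours, then LipidA-transfected 24 hour.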
Regarding CCUCAAUAGCUCUACUGAATT against Slc17a3, the z-score is inactive: 0.393.

As to GAAAUUUCCUAGAUGACUCTT against Vmn1r199, the z-score was inactive: -0.447.

For the sequence GGAGGUUAAUUCAGAGCUGTT against Nrf1, the z-score was inactive: -0.442.

With GUAUGACCAGAAGAAAAAGTT against Lrrc72, the z-score is active: -2.19.

GCUGCACGAUGCAUGGUUUTT against Asic3: the z-score was inactive: 1.43.

As for CCCAUAACCAGAAUUAAAGTT against Wdr64, the z-score is inactive: 0.454.

Take CGUGGAACUCUCAACCAAGTT against Rbm14: the z-score was inactive: 0.151.

With GGGAUAAGAUUUUCUUGAUTT against Dock2, the z-score was inactive: 0.332.

For the sequence GGAGGAAAAGGCUUUUCGATT against Ccdc70, the z-score is inactive: 1.04.

In the case of GGUGUGACCUCAUCUUUUUTT against Kmt5c, the z-score is inactive: -1.35.

GGCUUGAUGAAUAUUCCAUTT against Bpifa5: the z-score is inactive: 1.11.

Regarding GAUCUAGGACAGCUUAGAUTT against Avpr1b, the z-score is inactive: -0.955.

Consider CCAUCAAUGUAAUCUUCCATT against Zfp386, for which the z-score was inactive: -0.362.

As for GGAAAAUCAAGAUGAGAUATT against Stag2, the z-score was inactive: -1.21.

As for CGAUAAGAACACCUAUAUUTT against Sf3b1, the z-score is active: -3.26.

In the case of GGAAAGAGGAAAACUCUCCTT against Pole4, the z-score was inactive: 1.05.

GGCCUGAAAUCAAACGGGUTT against Smarcd1: the z-score was inactive: 1.04.

Turning to GGCCAUUUCAAGACUCUCGTT against Cd109, the z-score was inactive: 0.347.

Consider GAAUAUGUGGCUCUGGGUCTT against G6pc3, for which the z-score is inactive: -0.414.

Turning to GGCUUAUGUGAUUUUGAUUTT against Gpr63, the z-score was inactive: -0.628.

In the case of GGUCUUUUCACAUACAUAUTT against Fstl1, the z-score is inactive: 0.199.

On to GGUGCUCAGGAGGGAAUCUTT against Fdxacb1, for which the z-score is inactive: 0.324.

On to GCCUGGAUAGGCUUAAAGATT against Dpep2, for which the z-score was inactive: -0.267.

Turning to GCUUUCGGACUACAGAGGGTT against Prdx2, the z-score is inactive: -0.459.

Turning to GGCAAAAUAAAGCUUAAGGTT against Robo3, the z-score is inactive: -0.517.

Turning to GAGAAUCCAGAACUCCAAUTT against Olfr952, the z-score is inactive: 0.566.

Take GGAGAAGAUGUGGAGACAUTT against Edf1: the z-score is inactive: -1.3.

Take GGAUCCAGUUUUGUUUUUGTT against Slc28a2: the z-score was inactive: 0.325.

Consider GGCCACCAUCCAUGAGAACTT against Kcne2, for which the z-score is inactive: 0.515.

For the sequence GCUAGUUCUGAGAGACAGATT against Mup5, the z-score was inactive: -0.261.

As for GGUCCAAUUAAGGUUUUGUTT against Pias1, the z-score is inactive: 0.817.

With GCUCUCCUCAAGUCAAGUGTT against R3hcc1l, the z-score is inactive: -0.166.

As to GGAAAUAGAGAAGAAAUUGTT against Nsmf, the z-score is inactive: 0.225.

As for GGCUAUCUUGCUGCUGGUUTT against Vmn1r17, the z-score was inactive: 1.08.

Turning to GGAGAUGGAGGAGAAAGCATT against Art5, the z-score was inactive: -1.49.

CGAGCAGUGAAGACCAUCUTT against Klk14: the z-score was inactive: -0.151.

With CCUCCUGGAAGGGAUCAUGTT against Tmem119, the z-score is inactive: -0.384.

Turning to GGCUGUUCGGGUGACUAUUTT against Il17re, the z-score is active: -2.83.

For GAGCUAUACAAGGCCUACCTT against LOC547349, the z-score was inactive: 0.586.

Take GGCCCAGAAGUUAUUCCUGTT against Zfp566: the z-score is inactive: -0.57.

On to CCUACUAUGGCUCAUUUUATT against Rybp, for which the z-score was inactive: 0.216.

As to GGUGUUGCUUAUCAUCGGCTT against Mrgprh, the z-score was active: -2.03.

For the sequence GCUUAGACACAUCAAGAGATT against Bend5, the z-score was inactive: -0.382.

Take GGAUGAGAACUUCAUCCUATT against Ppia: the z-score is inactive: -0.13.

With GGUACUCUGGAGCUUCAAGTT against Pagr1a, the z-score is inactive: -1.89.

Turning to GGUUCUAUGGCUCUCAAGATT against Ptgir, the z-score was inactive: -0.625.

Turning to GGUGUCAGAACAAGGUUUGTT against Pdcd5, the z-score is inactive: 1.52.

As to GGAGCCAGAACUAGAAGCUTT against Nol3, the z-score was inactive: -1.39.

Regarding GGCCUUGUUAACAGAACAUTT against Sgo2a, the z-score was inactive: 0.899.

GGAGGUGCUAAGGAGAAGATT against Plagl2: the z-score is inactive: 0.034.

For GGAAAACUUGCUUACGCAUTT against Zfp146, the z-score is inactive: 0.68.

For GGAUCUAUGAAACCACCGUTT against Gpx8, the z-score is inactive: 0.874.

On to GCAUGUGAACAUAUUCAAATT against Scaf11, for which the z-score is inactive: 1.63.

Consider GGUAUUUGCUGAACUGUUUTT against Ckmt1, for which the z-score was inactive: -0.931.

CGAGAUAGAGUACAUCUUCTT against Vegfa: the z-score is inactive: 0.412.

For the sequence GGCUCAAGGCACUCAAUACTT against Olfr550, the z-score was inactive: -0.0393.

With GUAUCAUACAAUGAUGUCCTT against Olfr176, the z-score is inactive: -0.392.

Regarding GGUAGAGAAUUGAAACCUATT against Klhdc10, the z-score was inactive: -0.776.

As for AACCAGAGGUCCUAAAUACTT against Mmp28, the z-score was inactive: -0.948.

As for CGGACUUACCAAAAGCGCATT against Lss, the z-score is active: 3.16.

For the sequence AGUCACAGUAAUCUCCUACTT against Platr25, the z-score is inactive: -0.872.

Regarding GGCCAUGGUUUCAAAAACATT against Rspo2, the z-score is inactive: -1.33.

GGCCCUUUGAAGAGAAUCGTT against Hnrnpul1: the z-score was inactive: -0.771.

As for GGAUUUAAAAGAGGCAGAATT against Sil1, the z-score is inactive: 0.159.

Consider GCAGCAUCCCUACACGUUCTT against Galnt2, for which the z-score is inactive: 0.281.

Turning to CCACUUCUCUAAGACAAUCTT against Acox3, the z-score was inactive: -0.107.

On to GCUACCAAUAGGAAUAAAATT against Vmn1r226, for which the z-score was inactive: 0.965.

Consider CCCACUUCCGAUCCAAAGATT against Zfp593, for which the z-score is inactive: 0.936.

As to GGUCAAGACUAGCUACUUUTT against Gsdme, the z-score is inactive: -0.917.

Consider GGUGGCUUAGCACGAAGCATT against Elk1, for which the z-score was inactive: 0.0968.

In the case of GCUACCCUGAAUGCAACGUTT against Slc13a5, the z-score is inactive: -0.291.

For GGAACUGGAAAUCUCAGAGTT against Pcdh12, the z-score is inactive: 0.447.

With CCUUUGUUCCACAUAAUAATT against Vmn1r10, the z-score was inactive: -0.738.

CGGUAGAGCGCAAAGAUUATT against Nefm: the z-score was inactive: 0.0814.

Take GCCACAUUGGAAGUAUCGATT against Pdk4: the z-score was inactive: -0.613.

For GCACGUAUGCUCUUUCUCATT against Pigw, the z-score was active: -2.52.

GGUUUCUUUGCCUACCCAGTT against Prrc2b: the z-score is inactive: -1.13.

Take CCUUCAACUUCCAUUUUUCTT against Ugt2b36: the z-score is inactive: -1.28.

With CGUGUGGUUAGUACCUAAUTT against Grin2c, the z-score is inactive: 1.23.

As to GGAAUCUUCCAGAACUAAATT against Rufy1, the z-score is inactive: 0.912.

Consider GCCUGCUCUUGAAGGAUAATT against Ptpn9, for which the z-score was inactive: -0.635.

On to GGACAACAUUGCUAAAUUUTT against Ces1e, for which the z-score is inactive: 0.0577.

Consider GCCAAAUUCUGGCUUCUUCTT against Cdc26, for which the z-score is inactive: 1.15.

Turning to GCUGUAGCUCCAACAAUUUTT against Olfr1442, the z-score was inactive: -0.908.

Regarding GCAGUCUUCCCUCAUCCUUTT against Cox8a, the z-score is inactive: 1.74.

On to GGAGGCCCUCAUGAAACGUTT against Ctc1, for which the z-score was inactive: 1.01.

Consider GCAGUUACAAGACUCCUUGTT against Ctnna3, for which the z-score is inactive: 0.268.

Take GGAGCCACAGAACAUAUUATT against Pinx1: the z-score was inactive: 0.497.

With GCUGAUUAUCACAUCAGUGTT against Dph1, the z-score is inactive: 1.22.

For GGGUUUUGUCAAUCAAAUATT against Dimt1, the z-score is inactive: 0.68.

On to GGCUGACAAUGUUAAAAGUTT against Nucks1, for which the z-score is inactive: -1.77.

Consider GGUCUUUAUACAGAGAUAATT against Naa15, for which the z-score was inactive: -0.495.

As for GGAGAACCAUAAUAAGAGUTT against Tnfrsf26, the z-score was active: -2.88.

Regarding GGCUAUUUGAAAACCAACUTT against Apmap, the z-score was inactive: -0.369.

For GGAAAACCACCAUUUUAUGTT against Zfp36l1, the z-score was inactive: 0.746.

With GGUUGCUAUGAUUUUUGUUTT against Itsn1, the z-score was inactive: 0.52.

With GGGCCAAUAGGAGUUCUUUTT against Tcf20, the z-score is inactive: 0.285.

In the case of GCUUUAGGAAAUUUUGUGUTT against Ska3, the z-score was inactive: -1.05.

Take CGGUGACAUUUGUGAAACUTT against Smn1: the z-score was active: -2.05.

GGAAACCAUCGAGCAAGAGTT against Tmsb15a: the z-score was inactive: 0.26.

In the case of CGAGGUCAUUCACUCUCGUTT against Hapln2, the z-score is inactive: -0.286.

Take GCAAUAGGAAGACCACUUATT against Rhno1: the z-score was inactive: -1.46.

Regarding GGGAUUGCCGGACAUGGAUTT against Maco1, the z-score was inactive: -1.27.

With GGUACCCUUAUUGGAUAUUTT against Slc30a5, the z-score was inactive: 1.59.

As to GGAUAUGCUUAGAUAGACCTT against Galk2, the z-score was inactive: -0.127.

For the sequence GCUCGAAUGUGUAAAGACGTT against Csnk1e, the z-score is inactive: 0.982.

Consider GGCUGUUUUCUAUCCUAGGTT against Cd207, for which the z-score was active: -2.82.

Values taken from PubChem BioAssay AID1508600 (Functional Genomics Laboratory (NCATS/FGL), 2020).
